Results from PMC7819943, “Rice protein-binding microarrays: a tool to detect cis-acting elements near promoter regions in rice”.
This is one part of the list.

Amino acid sequences for entries named in this document (tags omitted).
UniProt Q0JBA9, entry or part of it: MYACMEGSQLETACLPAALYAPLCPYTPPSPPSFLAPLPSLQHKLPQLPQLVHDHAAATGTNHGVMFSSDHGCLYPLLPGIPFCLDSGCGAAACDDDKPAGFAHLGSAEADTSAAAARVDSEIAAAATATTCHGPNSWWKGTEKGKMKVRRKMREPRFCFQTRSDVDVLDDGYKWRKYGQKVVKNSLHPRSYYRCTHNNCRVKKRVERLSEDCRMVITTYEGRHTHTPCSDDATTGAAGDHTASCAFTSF

molecular target: OsWRKY34 (Oryza sativa, UniProt Q0JBA9 1-250); assay: protein-binding microarray (RPBM); PBS, 2% BSA, 51.3 ng/ul salmon testes DNA, 50 uM zinc acetate, 200 nM TF, 25 C, 1 h; high values mean tight binding; details: protein: recombinant; tags: N-terminal polyhistidine and DsRed monomer fusion (pET32a); label: CyDye5-dUTP incorporated in the synthesized complementary strand; 3' TTTTT single-stranded linker to array surface; dsDNA, one strand shown
Summary of the method: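 Transcription factors were made in E. coli BL21-CodonPlus as N-terminal fusions to a polyhistidine tag and DsRed, then purified on Ni–NTA. After primer extension with Cy5-dUTP and blocking with 2% BSA, a custom Agilent array was exposed for 1 h at 25 °C to 200 nM protein in PBS, 2% BSA, salmon testes DNA and 50 µM zinc acetate. Washed arrays were scanned on an Axon 4000B, and the binding signal is per-feature fluorescence intensity in arbitrary units.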

Sequence | binding signal
TGTAGCCACAATTGTGTCAACTCCTTTGCTGTCTTCTCTACGGAGTCACCTAGTGCAG | 8450 fluorescence intensity (a.u.)
TGTAAACGCCGCATGCTTCTGCTTTTTTGGTATGTTTCCTCGGAGTCACCTAGTGCAG | 9660 fluorescence intensity (a.u.)
TTCATTGTTTTGGTCAACTCGGGCTTGTTGCTTTTAATCACGGAGTCACCTAGTGCAG | 11000 fluorescence intensity (a.u.)
CAATATTATTTAGTCTCTCGTTGATGTTGCACCCTAAATACGGAGTCACCTAGTGCAG | 8200 fluorescence intensity (a.u.)
GACTGGGAATGGATTTTGTGTTTATTGACACTTCAGCTTACGGAGTCACCTAGTGCAG | 8040 fluorescence intensity (a.u.)
CTTTTTATTTTCTTTTAGTGAAAACTATCGTTTTTATTTTCGGAGTCACCTAGTGCAG | 9310 fluorescence intensity (a.u.)
ATCACCACACCACCCTGTATATTCCTCCTCTTCTTCTTCCCGGAGTCACCTAGTGCAG | 8400 fluorescence intensity (a.u.)
GGCGGATTTCGGTTTCTTCGTGTGTTTGTTGGTTGCGTTGCGGAGTCACCTAGTGCAG | 12700 fluorescence intensity (a.u.)
TGCATCTGTGGAACATCATTGTATATCATGCTCATGTATGCGGAGTCACCTAGTGCAG | 10100 fluorescence intensity (a.u.)
GGGATTTAGCTGTTGGTGTAGTGGGTGGAAGGCTAGAAGGCGGAGTCACCTAGTGCAG | 8820 fluorescence intensity (a.u.)
GGAACCCGTGCTACATGCCTACTAGTACACACTTGCATCACGGAGTCACCTAGTGCAG | 9720 fluorescence intensity (a.u.)
CCAAACCTACACGTCCCAGTTCAGTCATTCATCCTGCTAGCGGAGTCACCTAGTGCAG | 9110 fluorescence intensity (a.u.)
CCGCCGCCGTGAACTCGCCGTTCTTCCCGCCGCCGTCCTCCGGAGTCACCTAGTGCAG | 9080 fluorescence intensity (a.u.)
TCCCTTCCTGGCGCTGTCAGCTTGTGGGGTCGGGATGTCACGGAGTCACCTAGTGCAG | 8340 fluorescence intensity (a.u.)
CTCTTTCCTCTCCTTTCCGTCGCGCTGTTCGCTGCCTACACGGAGTCACCTAGTGCAG | 8860 fluorescence intensity (a.u.)
CTCTCACTCGATTTTCTCACTCAAATTTACAGTGCATTTTCGGAGTCACCTAGTGCAG | 8350 fluorescence intensity (a.u.)
ACTCCCGGCTAATAACATTAATCATCGCCAGTTTGATCTTCGGAGTCACCTAGTGCAG | 8260 fluorescence intensity (a.u.)
TGCAGGCTTCCACCGCCCGCCTGTCATTGTCGCCCACTGCCGGAGTCACCTAGTGCAG | 8760 fluorescence intensity (a.u.)
ACTACATCCGTCCCAAAATAATTGTAATTCTCTGTTGTTTCGGAGTCACCTAGTGCAG | 9570 fluorescence intensity (a.u.)
TCTCCATGCTACCTTTGCTTGTCCTCCGTCGCTGGTGAAGCGGAGTCACCTAGTGCAG | 11000 fluorescence intensity (a.u.)
GACGGTGGCCATTCTAATTCCTCTATTGCAGGGTCTAACTCGGAGTCACCTAGTGCAG | 8310 fluorescence intensity (a.u.)

Sequence | binding signal
TCTTCTTCGTCTAATGGTCACACGGCATCGTTTTCGCTCGCGGAGTCACCTAGTGCAG | 8250 fluorescence intensity (a.u.)
TCTATGCGTGGGCCCTGGTTTTCTTTGATTTCACCTACAGCGGAGTCACCTAGTGCAG | 8450 fluorescence intensity (a.u.)
CGGGCCATATGTGACTCGAGCTCAAGTGTTTCTGCCATTTCGGAGTCACCTAGTGCAG | 8690 fluorescence intensity (a.u.)
TCCCCTGGTAAATCTAGTCGTATTCTTCTTTTTTCGGGGACGGAGTCACCTAGTGCAG | 11800 fluorescence intensity (a.u.)
CCATCATGAGCAACTTCACCAATCTCCACGTGATAATTTTCGGAGTCACCTAGTGCAG | 8960 fluorescence intensity (a.u.)
GAGCTTGTTCCTGGTACATATACATATGCTGAGCTTTCCACGGAGTCACCTAGTGCAG | 8810 fluorescence intensity (a.u.)
GCTATTGTACCTGCTCTAATGTGTACTCCCTCCGTCCCAACGGAGTCACCTAGTGCAG | 8590 fluorescence intensity (a.u.)
TTTAACGTTTGACACCACTATACCGCAGACACTGACACTACGGAGTCACCTAGTGCAG | 8210 fluorescence intensity (a.u.)
ACAGATTTTTCAAGGTGATTGCCTCAACTTTTTTTTCCGTCGGAGTCACCTAGTGCAG | 9120 fluorescence intensity (a.u.)
AGAAGCTTTTTTTTAATCGCTTTTTTGTCGGACTTTTTTCCGGAGTCACCTAGTGCAG | 8380 fluorescence intensity (a.u.)
AATCTGTGCAATTGGTTATTTTTTAGCCTATATTTAATATCGGAGTCACCTAGTGCAG | 8480 fluorescence intensity (a.u.)
ACTTCGTTGATTTTTTTAAACATGTTTGATCATTCGTCTTCGGAGTCACCTAGTGCAG | 10700 fluorescence intensity (a.u.)
GTTATGAAAATGATTTTGGTTGTTTTCCGCTCGTTTTATCCGGAGTCACCTAGTGCAG | 10000 fluorescence intensity (a.u.)
ATTCATAAATTAATTTTCGTTGCTTTCTTCATTTTATTGTCGGAGTCACCTAGTGCAG | 10100 fluorescence intensity (a.u.)
TGAGCACGGAAAACAAGTGACTTCTGTCTGTATCATGTCCCGGAGTCACCTAGTGCAG | 8490 fluorescence intensity (a.u.)
CCGCTTCTTCTTCTTGTTTCCACCGAGCCCAAGCCGCCTTCGGAGTCACCTAGTGCAG | 11100 fluorescence intensity (a.u.)
CTGCTACTGTGCTACTGTCCTACCGTGCTGTACCTTGCGTCGGAGTCACCTAGTGCAG | 8060 fluorescence intensity (a.u.)
ATCTCTGTACCTTCACGCATCTTCAGTCCCAAGCAACCCCCGGAGTCACCTAGTGCAG | 8050 fluorescence intensity (a.u.)
GTTACTTTCAACTAATACTACGTGCACATTCACTTTTTCTCGGAGTCACCTAGTGCAG | 8660 fluorescence intensity (a.u.)
CATGTCATCAAGTGTACAAATTGCGTGTGTTTTTGTTTTTCGGAGTCACCTAGTGCAG | 8290 fluorescence intensity (a.u.)
CAAATTCAGCTGTTGACCGGACTCCTGAAGCCTCTTCTCCCGGAGTCACCTAGTGCAG | 8820 fluorescence intensity (a.u.)

A second format for some results above.
Sequence	binding signal
CGGGCCATATGTGACTCGAGCTCAAGTGTTTCTGCCATTTCGGAGTCACCTAGTGCAG	8690 fluorescence intensity (a.u.)
TCCCCTGGTAAATCTAGTCGTATTCTTCTTTTTTCGGGGACGGAGTCACCTAGTGCAG	11800 fluorescence intensity (a.u.)
CCATCATGAGCAACTTCACCAATCTCCACGTGATAATTTTCGGAGTCACCTAGTGCAG	8960 fluorescence intensity (a.u.)
GAGCTTGTTCCTGGTACATATACATATGCTGAGCTTTCCACGGAGTCACCTAGTGCAG	8810 fluorescence intensity (a.u.)
GCTATTGTACCTGCTCTAATGTGTACTCCCTCCGTCCCAACGGAGTCACCTAGTGCAG	8590 fluorescence intensity (a.u.)
TTTAACGTTTGACACCACTATACCGCAGACACTGACACTACGGAGTCACCTAGTGCAG	8210 fluorescence intensity (a.u.)
ACAGATTTTTCAAGGTGATTGCCTCAACTTTTTTTTCCGTCGGAGTCACCTAGTGCAG	9120 fluorescence intensity (a.u.)
AGAAGCTTTTTTTTAATCGCTTTTTTGTCGGACTTTTTTCCGGAGTCACCTAGTGCAG	8380 fluorescence intensity (a.u.)
AATCTGTGCAATTGGTTATTTTTTAGCCTATATTTAATATCGGAGTCACCTAGTGCAG	8480 fluorescence intensity (a.u.)
ACTTCGTTGATTTTTTTAAACATGTTTGATCATTCGTCTTCGGAGTCACCTAGTGCAG	10700 fluorescence intensity (a.u.)
GTTATGAAAATGATTTTGGTTGTTTTCCGCTCGTTTTATCCGGAGTCACCTAGTGCAG	10000 fluorescence intensity (a.u.)
ATTCATAAATTAATTTTCGTTGCTTTCTTCATTTTATTGTCGGAGTCACCTAGTGCAG	10100 fluorescence intensity (a.u.)
TGAGCACGGAAAACAAGTGACTTCTGTCTGTATCATGTCCCGGAGTCACCTAGTGCAG	8490 fluorescence intensity (a.u.)

(listing goes on)

Sequence | binding signal
GTTTTCTGCTGCCGACTTGGGTATTGACCTCCATATGCTCCGGAGTCACCTAGTGCAG | 9060 fluorescence intensity (a.u.)
GGGAGGGCAATCTCGTCCGTTCGATCTCGCGGTAATGGTCCGGAGTCACCTAGTGCAG | 8360 fluorescence intensity (a.u.)
TTGACTTTTGATCGACTCGCGTTGTATTTACCTGCCTACTCGGAGTCACCTAGTGCAG | 12100 fluorescence intensity (a.u.)
CATCGACGCCCACGCCGCCGCACGCTAAACCCGCCCGCTCCGGAGTCACCTAGTGCAG | 9810 fluorescence intensity (a.u.)
TCGCCTCGCCTCGCCTTCTAGCTCGCGGCCGCCGCTAGCGCGGAGTCACCTAGTGCAG | 9770 fluorescence intensity (a.u.)
TCACAGGTGTGGGTGGGAAGACTTTGACTAGGGTTGGACTCGGAGTCACCTAGTGCAG | 9130 fluorescence intensity (a.u.)
TTTCAGTCCATACTTTCCTGTATCTGACAACACATTTTTTCGGAGTCACCTAGTGCAG | 8830 fluorescence intensity (a.u.)
ACTTATAGCTACACTCAGTTACTGCATCAAAATTAGATTTCGGAGTCACCTAGTGCAG | 8290 fluorescence intensity (a.u.)
GTCCTCCATGAACAGTCCCACCGAGTTGTCTATTTACGTTCGGAGTCACCTAGTGCAG | 8860 fluorescence intensity (a.u.)
CTCAATTTGGACCATCCATTTTCAATCCAACGGCGCGCGACGGAGTCACCTAGTGCAG | 8350 fluorescence intensity (a.u.)
CATTCCTTGATCGTTCGTTCCCGCCGCGTCGCGACGTCGACGGAGTCACCTAGTGCAG | 8510 fluorescence intensity (a.u.)
GACTAATGTGATTTTTTGCCAACCGGACAACTCTAGCAAACGGAGTCACCTAGTGCAG | 8540 fluorescence intensity (a.u.)
GCATGATCCCAAAGGTGCACTCATCATCCTACTTATCCTTCGGAGTCACCTAGTGCAG | 10700 fluorescence intensity (a.u.)
AACTTACCGCTCTCTATGTCCATGTCAACTATCCATGTTACGGAGTCACCTAGTGCAG | 12500 fluorescence intensity (a.u.)
TTTATTTTGTTCGTGACTTCTTTTATTATCAAAATTACTTCGGAGTCACCTAGTGCAG | 8810 fluorescence intensity (a.u.)
TACTATTCTTAATATATCGCATTTGCTCTGTAGTATATACCGGAGTCACCTAGTGCAG | 8340 fluorescence intensity (a.u.)
ATATATATATATATATATATATATATATATATGATGTGCGCGGAGTCACCTAGTGCAG | 13600 fluorescence intensity (a.u.)
GAGGCAGGGTTTGGCTGTGTTGTTTGGGGCTGGGAACCCTCGGAGTCACCTAGTGCAG | 13200 fluorescence intensity (a.u.)
CTTTTTTCCAAGTTCTTTTTTCTCCTTGGTCTCTAGCTTACGGAGTCACCTAGTGCAG | 13700 fluorescence intensity (a.u.)
CCGCGTCCGCGTCCCCGCCGACCTGCGCCACGCGCGCTACCGGAGTCACCTAGTGCAG | 8740 fluorescence intensity (a.u.)
ACTTTAGTAAACTCAACCATGTATTATTGGTTTCTGTCTCCGGAGTCACCTAGTGCAG | 8230 fluorescence intensity (a.u.)

Sequence | binding signal
CACCGATTTGCCTCAGCCTCTGTCCGTCTCGCGCGCCGGCCGGAGTCACCTAGTGCAG | 11200 fluorescence intensity (a.u.)
AGGTGTTGAAATTGCAGGGTTTGTTTTGGTTAATCAAGAGCGGAGTCACCTAGTGCAG | 10000 fluorescence intensity (a.u.)
TGCTTGTACAGTTTCCGGTTTCTTTGCCATTTCGTTTACACGGAGTCACCTAGTGCAG | 20000 fluorescence intensity (a.u.)
CGCTTTGTATCCCACACGATCCATTCGCTTCTTCTTCTTCCGGAGTCACCTAGTGCAG | 14900 fluorescence intensity (a.u.)
TCTGTGTAGTTTGTATGGGAGGGGTCCAAAAGCAAAATTACGGAGTCACCTAGTGCAG | 15300 fluorescence intensity (a.u.)
AACTTTCGATGCCATAGAACCAATTTTGCCATCTCCGGTCCGGAGTCACCTAGTGCAG | 8260 fluorescence intensity (a.u.)
CATGTTAGATGTTTTTTTTCTTGTTACTCTTTTTTATTTTCGGAGTCACCTAGTGCAG | 13300 fluorescence intensity (a.u.)
GATCCGCTCTTGTAGTTGTAGAGCGTTCCATTCCACTTCCCGGAGTCACCTAGTGCAG | 11800 fluorescence intensity (a.u.)
ACCCAGCCCACTAGCTTATCCTGCGTTATTTTCATCAACTCGGAGTCACCTAGTGCAG | 12300 fluorescence intensity (a.u.)
CGTGAACTTCTCTCGACTCAACCACCATGCCCCATGTCATCGGAGTCACCTAGTGCAG | 8800 fluorescence intensity (a.u.)
GCCGCCGCCATTTTTGTTTCTTGGGAGCTCGCCGGTGACGCGGAGTCACCTAGTGCAG | 9920 fluorescence intensity (a.u.)
ACTGAGCCGCTGCCGTCGTTGACCTCCCGGCTGCTCAATCCGGAGTCACCTAGTGCAG | 10600 fluorescence intensity (a.u.)
TGGATGATTTTGCCATTTTTTTCATTGCTGGTGCGGTGGTCGGAGTCACCTAGTGCAG | 8460 fluorescence intensity (a.u.)
GCCCTGCCTTTCAACTACCCTCTACTCGGATCGGACGACGCGGAGTCACCTAGTGCAG | 8930 fluorescence intensity (a.u.)
GCAATATTCCTCATCCTTGTCATGATGAACTAGTAATTACCGGAGTCACCTAGTGCAG | 10000 fluorescence intensity (a.u.)
GGTTGGTTTTTGTTCTTGATTTGCTTCATCGATTGGGAGGCGGAGTCACCTAGTGCAG | 10300 fluorescence intensity (a.u.)
TCTTAGGTATGGTTTAGTTCTCAATTTTTTTTCCTAAAAACGGAGTCACCTAGTGCAG | 9490 fluorescence intensity (a.u.)
TTTTGTCTTCCATATCGCCTCTTTTAGTACTATTTCCCTTCGGAGTCACCTAGTGCAG | 13700 fluorescence intensity (a.u.)
TACAGAAGAATCCTCGCTTCTGTTTGTTATTCCACGCTTCCGGAGTCACCTAGTGCAG | 9450 fluorescence intensity (a.u.)
TCTCCTCTCGAGGCGCACAAGTCCAACACGCTCACCTTCTCGGAGTCACCTAGTGCAG | 10900 fluorescence intensity (a.u.)
CATCATCTCCCCTTGTTGACTCACAATAACACAAACCCATCGGAGTCACCTAGTGCAG | 8240 fluorescence intensity (a.u.)
